Laboratory results: publication PMC2881103
These are yes or no findings as the source states them, for the method shown. In cells and extracts the contact can be indirect. A result given as binding can be weak or reduced; the word gives no strength.

Sequences of proteins named here, by UniProt entry; tags and fusion partners are left off. A change or cut given only in a name is not applied to a line headed by its entry.
UniProt Q9R283: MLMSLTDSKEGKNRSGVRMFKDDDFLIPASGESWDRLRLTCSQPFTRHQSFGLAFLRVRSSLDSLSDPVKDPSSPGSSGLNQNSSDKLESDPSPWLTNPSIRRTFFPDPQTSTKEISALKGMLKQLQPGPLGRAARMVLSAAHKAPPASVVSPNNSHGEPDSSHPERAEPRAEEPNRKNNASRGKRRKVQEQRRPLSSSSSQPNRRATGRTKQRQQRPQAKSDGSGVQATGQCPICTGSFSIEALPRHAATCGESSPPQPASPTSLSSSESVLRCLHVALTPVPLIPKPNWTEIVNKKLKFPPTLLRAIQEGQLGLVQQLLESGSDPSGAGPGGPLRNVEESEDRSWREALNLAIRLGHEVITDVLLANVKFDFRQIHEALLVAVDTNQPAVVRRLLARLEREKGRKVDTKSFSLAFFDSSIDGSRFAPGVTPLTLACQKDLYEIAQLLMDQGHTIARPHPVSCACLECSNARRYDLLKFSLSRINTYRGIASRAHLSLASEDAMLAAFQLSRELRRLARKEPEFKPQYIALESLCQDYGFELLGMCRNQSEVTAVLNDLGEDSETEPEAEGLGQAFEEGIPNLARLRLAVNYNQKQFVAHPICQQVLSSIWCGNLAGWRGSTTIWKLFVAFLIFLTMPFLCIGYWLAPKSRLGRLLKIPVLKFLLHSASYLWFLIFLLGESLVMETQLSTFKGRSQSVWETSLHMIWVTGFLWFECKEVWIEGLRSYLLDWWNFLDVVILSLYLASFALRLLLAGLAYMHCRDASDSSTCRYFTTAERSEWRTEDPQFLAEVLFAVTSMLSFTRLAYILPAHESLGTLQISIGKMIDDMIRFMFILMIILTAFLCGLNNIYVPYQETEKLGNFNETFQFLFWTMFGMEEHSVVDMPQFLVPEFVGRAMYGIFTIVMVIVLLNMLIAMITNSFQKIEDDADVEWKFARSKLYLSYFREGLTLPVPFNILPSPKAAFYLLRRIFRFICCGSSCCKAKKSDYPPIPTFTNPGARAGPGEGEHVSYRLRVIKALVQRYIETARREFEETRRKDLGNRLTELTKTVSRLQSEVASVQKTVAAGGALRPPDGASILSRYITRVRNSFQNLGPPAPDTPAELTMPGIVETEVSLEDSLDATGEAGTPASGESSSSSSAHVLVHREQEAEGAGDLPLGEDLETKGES

Key:
[1] = biological target: T1, receptor transporting protein 1 (RTP1) (rat (endogenous in VNO)) (UniProt D4AEN1); assay: co-IP; native P30 rat VNO lysates, precleared with protein A sepharose; overnight at 4°C with 5 μg/ml antiserum, protein A sepharose 3 hr, four washes; SDS-PAGE and Western blot for the suspected partner; reciprocal
T1 sequence: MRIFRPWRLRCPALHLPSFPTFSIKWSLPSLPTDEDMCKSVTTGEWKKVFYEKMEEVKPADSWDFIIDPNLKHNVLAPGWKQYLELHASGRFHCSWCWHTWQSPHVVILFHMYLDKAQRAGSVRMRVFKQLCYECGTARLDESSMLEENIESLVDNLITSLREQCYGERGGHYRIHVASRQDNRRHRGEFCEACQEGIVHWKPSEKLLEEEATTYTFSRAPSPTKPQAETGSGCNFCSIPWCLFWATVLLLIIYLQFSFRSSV

[2] = biological target: canonical transient receptor potential channel type 2 (TRPC2) (rat (endogenous in VNO)) (UniProt Q9R283); assay: as above

In the case of “canonical transient receptor potential channel type 2 (TRPC2) (from UniProt Q9R283-2)”, the binding [1] is reported as “binds”.

B1: receptor transporting protein 1 (RTP1) (protein, UniProt D4AEN1 1-263)
chain: MRIFRPWRLRCPALHLPSFPTFSIKWSLPSLPTDEDMCKSVTTGEWKKVFYEKMEEVKPADSWDFIIDPNLKHNVLAPGWKQYLELHASGRFHCSWCWHTWQSPHVVILFHMYLDKAQRAGSVRMRVFKQLCYECGTARLDESSMLEENIESLVDNLITSLREQCYGERGGHYRIHVASRQDNRRHRGEFCEACQEGIVHWKPSEKLLEEEATTYTFSRAPSPTKPQAETGSGCNFCSIPWCLFWATVLLLIIYLQFSFRSSV
For B1, the binding [2] was “binds”.
